Assay results published in article PMC5897841, “Development of a multipurpose scaffold for the display of peptide loops” (Protein Engineering, Design and Selection, 2017).
No constants are given. Whether binding was seen depends on the method and setting.

Amino acid sequences for entries named in this document (tags omitted). Residues count along the entry.
UniProt P68400, residues 2-329: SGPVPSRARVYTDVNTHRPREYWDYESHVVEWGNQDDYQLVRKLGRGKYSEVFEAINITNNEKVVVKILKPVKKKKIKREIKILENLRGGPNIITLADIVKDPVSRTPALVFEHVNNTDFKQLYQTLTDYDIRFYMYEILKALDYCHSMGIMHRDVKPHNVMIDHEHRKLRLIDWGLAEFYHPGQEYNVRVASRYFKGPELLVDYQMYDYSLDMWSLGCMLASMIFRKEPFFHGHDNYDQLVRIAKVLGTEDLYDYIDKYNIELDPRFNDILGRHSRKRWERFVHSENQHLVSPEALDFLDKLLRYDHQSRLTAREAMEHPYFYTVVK

How the values were obtained:
[1] = molecular target: CK2α kinase (human) (UniProt P68400); experiment: AUC; sedimentation velocity, absorbance at 280 nm, 50 000 rpm, 20°C, 20 mM HEPES pH 7.5, 500 mM NaCl; single proteins and mixtures (5 μM each CK2α and RAD-CK2β; 10 μM each Aurora A D274N and RAD-TPX2); both purified
[2] = molecular target: CK2α kinase (human) (UniProt P68400); experiment: SEC; analytical Superdex 75 5/150, 20 mM HEPES pH 7.5, 500 mM NaCl; single proteins and equimolar mixture; fractions checked by SDS-PAGE; both purified

binding [1]: no binding (tested: 6 μM)
binding [2]: no binding
Substance: CK2α kinase (from UniProt P68400 2-329) (enzyme)
